Laboratory results from article PMC10445734.

Target: N-terminally HA-tagged Fra (Frazzled), pan-neurally overexpressed (Drosophila)
Experiment: affinity purification with mass spectrometry; lysates of Drosophila embryos pan-neurally (elav-Gal4) overexpressing N-terminally HA-tagged Fra; anti-HA immunoprecipitation overnight at 4°C, protein A and G agarose beads, TBSV with 1% NP40; eluted with glycine pH 2.0; label-free LC-MS/MS; control embryos with elav-Gal4 alone

B1: Netrin-B (ligand, UniProt Q24568 23-793)
chain: SSAAGISSNDPCYFEGKPRKCLPSFVNAAYGNPVQASSVCGAQQPERYCELLRDGNAGECRSCEQQRYGPAALTDLNNPSNVTCWRSGAVNVPHDPDSAPPDNVTLTLSLGKKYELTYISLSFCPRSPRPDSLAIFKSSDFGQTWQPFQFYSSQCQKFYGRPDRAKISKFNEQEARCINSQHDTGGAAQRFAFNTLEGRPSANDLDSSLVLQDWVTATDIRVVFHRLELPPQLLKVKNANAFSDEMGGSREEDEDDDADLELDGEQDEYDYNLQDNDSADAGYDEYEEPKKHLELDDDHLHLDYASDGESVVKRQGKHKGSAYEKHYQSKLAATTPPQQPPKVTPPGKVTPPSTAAPSAAASAVTLPISQHYAVSDFAVGGRCKCNGHASECVATVSSGSGTALSDQDDGQDEDTPSAPSLANHFGRSTQMSAKLTMTCACKHNTAGPECERCKPFYFDRPWGRATDNDANECKMCQCNGHARRCRFNLELYKLSGRVSGGVCYNCQHDTTGRYCHYCREGYYRDATKPPNHRKVCKRCDCHPVGSTGKTCNHLSGQCPCKEGVTGLTCNRCARGYQQTRSHVAPCIKVPTNANMIQAESAGGGGGGGTGDYKDGGGSQVEEMKKYCGKCKASPKKLNLNKFCMEDYAILAKVIGHDRASQDISTEKFSIERQNEIYKYEINIQTIFKRNPMSGTTSSLLGRGNMMLLVPRKSIECQCPKIKLNKSYLILGRDSEAAPGYLAIGPSSVVLEWKDEWSLRMKRFQRRARKCS
With B1 the binding was “binds”.

No constants are given. Whether binding was seen depends on the method and setting. In cells and extracts the contact can be indirect. A yes stands for co-enrichment or nearness to the bait. Other partners may have been found.
